This is an account of results in paper PMC3440356.

Sequences of proteins named here, by UniProt entry; tags and fusion partners are left off.
UniProt O00750: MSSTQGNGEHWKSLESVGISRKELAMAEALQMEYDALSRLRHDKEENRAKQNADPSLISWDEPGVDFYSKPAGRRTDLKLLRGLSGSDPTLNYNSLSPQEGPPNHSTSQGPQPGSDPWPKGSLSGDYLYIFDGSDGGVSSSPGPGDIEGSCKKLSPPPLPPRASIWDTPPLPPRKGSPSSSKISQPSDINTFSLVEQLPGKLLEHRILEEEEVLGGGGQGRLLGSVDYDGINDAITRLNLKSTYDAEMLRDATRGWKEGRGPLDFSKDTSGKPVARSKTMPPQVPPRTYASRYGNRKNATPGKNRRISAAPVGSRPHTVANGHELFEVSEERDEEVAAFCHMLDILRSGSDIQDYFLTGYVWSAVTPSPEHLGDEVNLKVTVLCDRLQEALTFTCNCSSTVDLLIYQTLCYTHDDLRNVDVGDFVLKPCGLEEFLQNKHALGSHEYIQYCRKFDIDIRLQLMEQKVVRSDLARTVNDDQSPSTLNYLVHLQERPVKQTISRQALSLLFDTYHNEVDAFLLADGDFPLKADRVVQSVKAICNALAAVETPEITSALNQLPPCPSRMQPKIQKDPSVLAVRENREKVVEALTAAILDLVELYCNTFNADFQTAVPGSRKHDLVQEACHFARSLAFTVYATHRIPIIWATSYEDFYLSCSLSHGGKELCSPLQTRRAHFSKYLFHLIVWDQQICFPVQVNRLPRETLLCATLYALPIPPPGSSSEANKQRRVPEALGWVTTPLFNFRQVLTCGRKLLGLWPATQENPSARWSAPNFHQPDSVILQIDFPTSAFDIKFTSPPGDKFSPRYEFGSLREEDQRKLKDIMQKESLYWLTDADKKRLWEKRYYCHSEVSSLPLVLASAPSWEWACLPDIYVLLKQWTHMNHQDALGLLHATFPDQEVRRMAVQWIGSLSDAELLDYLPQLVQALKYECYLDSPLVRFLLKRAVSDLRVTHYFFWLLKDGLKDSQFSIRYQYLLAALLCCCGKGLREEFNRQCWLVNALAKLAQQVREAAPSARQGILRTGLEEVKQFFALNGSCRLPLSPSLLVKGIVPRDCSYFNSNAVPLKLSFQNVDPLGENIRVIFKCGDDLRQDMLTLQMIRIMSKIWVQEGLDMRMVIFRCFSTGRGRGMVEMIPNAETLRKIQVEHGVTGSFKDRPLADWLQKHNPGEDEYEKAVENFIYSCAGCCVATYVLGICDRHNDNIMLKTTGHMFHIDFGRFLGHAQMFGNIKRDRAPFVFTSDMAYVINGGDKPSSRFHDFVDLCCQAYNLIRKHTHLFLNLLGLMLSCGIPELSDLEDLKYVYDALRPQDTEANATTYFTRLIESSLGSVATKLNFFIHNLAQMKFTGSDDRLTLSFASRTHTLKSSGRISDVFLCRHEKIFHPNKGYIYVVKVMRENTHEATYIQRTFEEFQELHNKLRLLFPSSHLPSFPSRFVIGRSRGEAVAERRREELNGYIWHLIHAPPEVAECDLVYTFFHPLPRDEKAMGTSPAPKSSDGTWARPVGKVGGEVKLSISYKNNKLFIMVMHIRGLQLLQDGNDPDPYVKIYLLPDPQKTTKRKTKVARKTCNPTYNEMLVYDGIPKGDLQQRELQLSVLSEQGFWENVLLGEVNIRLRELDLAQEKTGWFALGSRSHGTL
UniProt P62993: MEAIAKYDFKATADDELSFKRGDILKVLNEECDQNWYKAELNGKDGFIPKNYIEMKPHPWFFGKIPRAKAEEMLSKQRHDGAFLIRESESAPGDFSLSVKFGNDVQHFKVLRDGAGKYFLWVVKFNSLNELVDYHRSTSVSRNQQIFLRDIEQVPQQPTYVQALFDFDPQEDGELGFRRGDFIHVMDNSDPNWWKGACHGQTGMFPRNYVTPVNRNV
UniProt Q60631: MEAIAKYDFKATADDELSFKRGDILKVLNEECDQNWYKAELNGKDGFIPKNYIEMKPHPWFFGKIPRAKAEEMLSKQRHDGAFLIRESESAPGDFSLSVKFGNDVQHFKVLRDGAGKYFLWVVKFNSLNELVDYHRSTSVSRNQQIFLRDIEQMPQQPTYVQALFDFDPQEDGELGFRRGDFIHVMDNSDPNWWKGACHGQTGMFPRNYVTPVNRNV

In assay [1] the target is Glu-tagged PI3KC2β wild-type (UniProt O00750). Nature of the assay: co-IP; lysates of NIH3T3 cells stably expressing Glu-PI3KC2β WT or Myc-PI3KC2β DN; IP with anti-C2β, anti-Glu (EE) tag or anti-Dbl antibody, 2 h at 4°C, immunoblot; also serum-starved cells stimulated with EGF or PDGF (20 ng/ml) for 5 to 30 min.
A further assay has as its target GST-fused Grb2 (UniProt P62993). Nature of the assay: pull-down; GST-NT-C2β or GST-Grb2 immobilised on glutathione beads, incubated 2 h at 4°C with lysates (Triton 1%) of HEK293 cells transfected with HA-proto-Dbl or untransfected; immunoblot; only the target purified.
In assay [2] the target is T1, GST-fused Dbl PH domain (human) (UniProt P10911).
T1 sequence: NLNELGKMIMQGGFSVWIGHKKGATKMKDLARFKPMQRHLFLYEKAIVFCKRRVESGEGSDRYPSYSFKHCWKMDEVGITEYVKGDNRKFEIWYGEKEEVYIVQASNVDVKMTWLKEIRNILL
As to the kind of experiment: pull-down; in vitro binding assay: GST-tagged proteins immobilised on glutathione-sepharose beads, incubated with soluble thrombin-cleaved NT-C2β and Grb2, 2 h at 4°C, 1% Brij 96 buffer (also Triton 1%); immunoblot; both purified.

These are yes or no findings as the source states them, for the method shown. For part of these data: In cells and extracts the contact can be indirect. Some binding calls cover weakened binding; strength is not graded here. For part of these data: Where a sequence is shown, tags or fusion partners need not be part of it.

Regarding “endogenous Grb2 (NIH3T3) (from UniProt Q60631 1-217)”, in assay [1], the binding entry was “binds”.

For the substance “endogenous PI3KC2β (IMR5, HEK293) (from UniProt O00750 1-1634) (enzyme)”, the binding result with GST-fused Grb2 is recorded as “binds”.

For “soluble Grb2 (from UniProt P62993 1-217)”, the binding result in assay [2] was “no binding”.
